Source: article PMC12608094, “STN1 Shields CTC1 From TRIM32‐Mediated Ubiquitination to Prevent Cellular Aging” (Aging Cell, 2025)
No constants are given. Whether binding was seen depends on the method and setting. In cells and extracts the contact can be indirect. Some binding calls cover weakened binding; strength is not graded here. Sequences can lack the tags named with a protein. Values belong to the molecule of their own block, whether it stands above or below them.

Amino acid sequences for entries named in this document (tags omitted).
UniProt Q13049: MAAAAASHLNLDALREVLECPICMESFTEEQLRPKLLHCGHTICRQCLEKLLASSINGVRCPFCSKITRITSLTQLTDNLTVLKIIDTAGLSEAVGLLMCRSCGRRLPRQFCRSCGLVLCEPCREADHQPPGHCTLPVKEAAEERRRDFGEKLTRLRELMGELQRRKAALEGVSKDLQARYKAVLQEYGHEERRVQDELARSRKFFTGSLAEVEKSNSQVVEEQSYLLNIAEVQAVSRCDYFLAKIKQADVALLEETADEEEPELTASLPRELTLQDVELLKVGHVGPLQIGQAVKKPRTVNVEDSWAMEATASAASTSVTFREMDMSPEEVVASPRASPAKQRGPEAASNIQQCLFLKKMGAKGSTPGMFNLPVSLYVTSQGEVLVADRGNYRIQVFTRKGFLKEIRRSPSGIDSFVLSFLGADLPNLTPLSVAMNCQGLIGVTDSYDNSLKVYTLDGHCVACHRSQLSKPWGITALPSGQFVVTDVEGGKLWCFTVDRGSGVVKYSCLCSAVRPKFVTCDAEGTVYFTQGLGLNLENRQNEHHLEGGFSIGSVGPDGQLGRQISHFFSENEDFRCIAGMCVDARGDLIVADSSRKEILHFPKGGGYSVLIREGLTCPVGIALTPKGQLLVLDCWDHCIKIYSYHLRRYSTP

Legend:
[1] = biological target: T1, Flag-tagged CTC1 (wild type) (human, UniProt Q2NKJ3 1-1217); experiment: co-IP; HEK293T lysates in NP-40 lysis buffer (20 mM Tris pH 8.0, 100 mM NaCl, 1 mM MgCl2, 0.1% Igepal); Flag-CTC1 precipitated with Flag M2 beads, 4°C, 2 h; Western blot
T1 sequence (looked up): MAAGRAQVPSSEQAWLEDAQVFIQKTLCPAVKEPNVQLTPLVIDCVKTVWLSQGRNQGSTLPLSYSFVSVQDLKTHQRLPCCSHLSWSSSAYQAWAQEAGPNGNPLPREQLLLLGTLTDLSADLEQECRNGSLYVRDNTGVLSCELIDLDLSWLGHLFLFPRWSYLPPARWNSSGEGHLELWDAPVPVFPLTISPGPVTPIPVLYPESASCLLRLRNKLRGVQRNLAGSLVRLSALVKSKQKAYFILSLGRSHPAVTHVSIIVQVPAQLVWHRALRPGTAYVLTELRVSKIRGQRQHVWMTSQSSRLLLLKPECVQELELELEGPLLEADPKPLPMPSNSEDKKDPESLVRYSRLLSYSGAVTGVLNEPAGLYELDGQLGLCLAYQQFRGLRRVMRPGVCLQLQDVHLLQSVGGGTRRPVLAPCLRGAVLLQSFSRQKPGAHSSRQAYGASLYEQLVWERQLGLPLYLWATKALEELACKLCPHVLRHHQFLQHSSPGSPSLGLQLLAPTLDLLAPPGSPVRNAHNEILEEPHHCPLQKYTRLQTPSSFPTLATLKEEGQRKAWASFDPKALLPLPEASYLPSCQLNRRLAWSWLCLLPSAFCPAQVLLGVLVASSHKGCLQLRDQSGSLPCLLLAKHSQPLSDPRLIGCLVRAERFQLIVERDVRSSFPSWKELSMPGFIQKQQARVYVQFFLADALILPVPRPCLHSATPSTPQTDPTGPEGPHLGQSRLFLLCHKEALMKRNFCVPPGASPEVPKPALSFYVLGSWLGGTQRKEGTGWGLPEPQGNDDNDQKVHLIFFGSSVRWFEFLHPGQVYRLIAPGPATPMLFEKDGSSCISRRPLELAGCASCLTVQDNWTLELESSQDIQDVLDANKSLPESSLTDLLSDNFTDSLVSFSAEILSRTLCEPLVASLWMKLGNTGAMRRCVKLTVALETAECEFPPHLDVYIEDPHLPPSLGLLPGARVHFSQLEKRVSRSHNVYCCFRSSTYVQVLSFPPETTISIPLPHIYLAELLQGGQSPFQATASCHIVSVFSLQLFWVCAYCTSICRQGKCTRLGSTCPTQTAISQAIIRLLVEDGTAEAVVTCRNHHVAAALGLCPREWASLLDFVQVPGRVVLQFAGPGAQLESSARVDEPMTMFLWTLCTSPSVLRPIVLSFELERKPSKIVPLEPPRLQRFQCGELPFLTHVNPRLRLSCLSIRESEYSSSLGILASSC

[2] = biological target: T1, Flag-tagged CTC1 (wild type); experiment: pull-down; GST pull-down from HEK293T cell lysates with Glutathione-sepharose beads; GST-TRIM32 with WT or 1196Δ7 Flag-CTC1, with or without HA-STN1
[3] = biological target: T2, Flag-tagged CTC1 expressed in Sf9 cells (human) (UniProt Q2NKJ3); experiment: co-IP; Sf9 cells co-expressing Flag-CTC1 and His-STN1; lysate on Flag M2 beads 1 h at 4°C, washed with TBS, eluted with 3xFLAG peptide (co-purification)
T2 sequence: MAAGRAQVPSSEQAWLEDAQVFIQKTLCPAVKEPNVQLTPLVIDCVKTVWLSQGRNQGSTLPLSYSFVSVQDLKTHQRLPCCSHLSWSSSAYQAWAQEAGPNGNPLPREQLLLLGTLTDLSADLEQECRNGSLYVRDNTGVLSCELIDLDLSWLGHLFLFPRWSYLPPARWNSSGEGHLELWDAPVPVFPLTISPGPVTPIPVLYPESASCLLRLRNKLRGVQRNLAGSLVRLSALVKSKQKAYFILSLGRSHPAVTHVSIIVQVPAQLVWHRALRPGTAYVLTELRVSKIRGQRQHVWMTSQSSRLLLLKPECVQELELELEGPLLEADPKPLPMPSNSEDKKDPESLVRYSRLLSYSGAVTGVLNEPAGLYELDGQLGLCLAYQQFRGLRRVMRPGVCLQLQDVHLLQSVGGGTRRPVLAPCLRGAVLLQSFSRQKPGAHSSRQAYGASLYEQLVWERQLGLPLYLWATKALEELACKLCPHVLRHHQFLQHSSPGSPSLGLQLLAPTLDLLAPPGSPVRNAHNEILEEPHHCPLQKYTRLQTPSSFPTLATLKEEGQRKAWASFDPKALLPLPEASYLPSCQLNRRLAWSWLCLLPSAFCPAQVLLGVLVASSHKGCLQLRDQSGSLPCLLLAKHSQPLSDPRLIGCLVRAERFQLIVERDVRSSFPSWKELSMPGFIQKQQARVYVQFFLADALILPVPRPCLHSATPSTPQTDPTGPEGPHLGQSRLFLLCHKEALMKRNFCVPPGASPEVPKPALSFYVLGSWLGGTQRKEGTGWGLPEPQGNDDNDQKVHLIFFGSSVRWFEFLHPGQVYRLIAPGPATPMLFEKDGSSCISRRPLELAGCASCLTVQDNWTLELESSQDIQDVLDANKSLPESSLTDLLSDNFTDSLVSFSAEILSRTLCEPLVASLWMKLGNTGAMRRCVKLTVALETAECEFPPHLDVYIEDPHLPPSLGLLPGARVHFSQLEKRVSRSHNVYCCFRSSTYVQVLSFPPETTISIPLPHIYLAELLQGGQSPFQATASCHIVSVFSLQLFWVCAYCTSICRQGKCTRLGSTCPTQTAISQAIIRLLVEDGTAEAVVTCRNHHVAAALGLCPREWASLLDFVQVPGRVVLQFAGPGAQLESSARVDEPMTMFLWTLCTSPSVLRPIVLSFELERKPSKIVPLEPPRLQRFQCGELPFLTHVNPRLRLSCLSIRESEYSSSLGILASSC

- binding [1]: binds
Molecule: GST-tagged TRIM32 expressed in HEK293T cells (from UniProt Q13049 1-653) (enzyme)

- binding [2]: binds
B1: HA-tagged STN1 (wild type) (natural protein, human, UniProt Q9H668 1-368, looked up)
chain: MQPGSSRCEEETPSLLWGLDPVFLAFAKLYIRDILDMKESRQVPGVFLYNGHPIKQVDVLGTVIGVRERDAFYSYGVDDSTGVINCICWKKLNTESVSAAPSAARELSLTSQLKKLQETIEQKTKIEIGDTIRVRGSIRTYREEREIHATTYYKVDDPVWNIQIARMLELPTIYRKVYDQPFHSSALEKEEALSNPGALDLPSLTSLLSEKAKEFLMENRVQSFYQQELEMVESLLSLANQPVIHSASSDQVNFKKDTTSKAIHSIFKNAIQLLQEKGLVFQKDDGFDNLYYVTREDKDLHRKIHRIIQQDCQKPNHMEKGCHFLHILACARLSIRPGLSEAVLQQVLELLEDQSDIVSTMEHYYTAF

- binding [3]: binds
B2: His-tagged STN1 co-expressed with Flag-CTC1 in Sf9 cells (protein, UniProt Q9H668 1-368)
chain: MQPGSSRCEEETPSLLWGLDPVFLAFAKLYIRDILDMKESRQVPGVFLYNGHPIKQVDVLGTVIGVRERDAFYSYGVDDSTGVINCICWKKLNTESVSAAPSAARELSLTSQLKKLQETIEQKTKIEIGDTIRVRGSIRTYREEREIHATTYYKVDDPVWNIQIARMLELPTIYRKVYDQPFHSSALEKEEALSNPGALDLPSLTSLLSEKAKEFLMENRVQSFYQQELEMVESLLSLANQPVIHSASSDQVNFKKDTTSKAIHSIFKNAIQLLQEKGLVFQKDDGFDNLYYVTREDKDLHRKIHRIIQQDCQKPNHMEKGCHFLHILACARLSIRPGLSEAVLQQVLELLEDQSDIVSTMEHYYTAF
